Experimental findings from PMC10985070 are described below.

Sequences of proteins named here, by UniProt entry; tags and fusion partners are left off.
UniProt Q02248: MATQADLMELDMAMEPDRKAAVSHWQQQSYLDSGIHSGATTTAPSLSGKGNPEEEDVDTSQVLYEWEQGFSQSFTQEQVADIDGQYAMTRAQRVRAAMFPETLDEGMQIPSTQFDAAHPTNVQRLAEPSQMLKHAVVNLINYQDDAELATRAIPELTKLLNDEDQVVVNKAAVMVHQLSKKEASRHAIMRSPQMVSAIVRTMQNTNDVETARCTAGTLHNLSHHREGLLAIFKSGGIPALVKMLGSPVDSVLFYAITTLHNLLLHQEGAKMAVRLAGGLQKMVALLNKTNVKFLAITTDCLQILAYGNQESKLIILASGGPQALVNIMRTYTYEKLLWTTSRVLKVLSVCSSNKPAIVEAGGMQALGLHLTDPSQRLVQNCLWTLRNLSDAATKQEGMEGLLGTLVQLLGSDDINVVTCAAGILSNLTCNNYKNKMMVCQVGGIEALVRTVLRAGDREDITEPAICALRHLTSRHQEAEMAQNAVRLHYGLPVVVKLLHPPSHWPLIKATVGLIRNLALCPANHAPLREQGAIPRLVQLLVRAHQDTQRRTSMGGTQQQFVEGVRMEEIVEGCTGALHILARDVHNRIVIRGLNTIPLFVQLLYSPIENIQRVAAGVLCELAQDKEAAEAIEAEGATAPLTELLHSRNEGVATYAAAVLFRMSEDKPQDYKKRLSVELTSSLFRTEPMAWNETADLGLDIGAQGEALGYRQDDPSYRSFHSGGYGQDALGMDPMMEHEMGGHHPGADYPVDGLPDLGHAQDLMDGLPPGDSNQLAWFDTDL
UniProt Q00417: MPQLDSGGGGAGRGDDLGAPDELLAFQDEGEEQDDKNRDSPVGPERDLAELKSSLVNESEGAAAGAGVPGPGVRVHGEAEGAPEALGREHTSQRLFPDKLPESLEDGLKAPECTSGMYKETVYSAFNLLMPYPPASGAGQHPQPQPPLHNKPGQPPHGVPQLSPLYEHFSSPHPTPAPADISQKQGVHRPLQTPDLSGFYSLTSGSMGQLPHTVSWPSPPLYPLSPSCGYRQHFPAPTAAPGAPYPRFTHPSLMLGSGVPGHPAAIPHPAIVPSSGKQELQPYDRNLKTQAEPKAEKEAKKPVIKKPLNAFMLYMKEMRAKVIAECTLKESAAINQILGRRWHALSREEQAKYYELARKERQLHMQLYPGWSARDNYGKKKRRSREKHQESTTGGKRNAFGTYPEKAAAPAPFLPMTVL

The assay has as its target β-catenin (mouse (endogenous in intestinal ILC3s)) (UniProt Q02248). Briefly: co-IP; lysate of mouse ILC3s treated with DMSO or CHIR-99021 for 24 hours; IP with anti-β-catenin antibody or IgG1 isotype control on protein A + G magnetic beads; immunoblot of TCF-1. A general note: In western blotting, separated proteins are transferred to a membrane and probed.

No constants are given. Whether binding was seen depends on the method and setting. In cells and extracts the contact can be indirect. Some results given as binding are weak or reduced against the parent protein; the word gives no strength.

For the substance TCF-1 (from UniProt Q00417 1-419), the binding entry is “binds”.
